# From the supplement of paper PMC8256030
# “And” between values parts separate entries of the source, which are not always exact repeats. Equal entries are not always repeated. Structures can show the parent of a compound that is named as a salt. The list shows a part of the results. Single values are uncertain here, since repeats match poorly.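 HEK293T cells were given each compound shortly before transfection with a reporter in which red mCherry is followed by the SARS-CoV-2 frameshift element and then GFP in the −1 frame, so GFP appears only after frameshifting.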
# Tested on: HEK293T
# Assay: percent viability (nuclei count) relative to control; higher = more viable cells
# Settings: 10 µM; 24 h
row,SMILES,percent viability
1,Cc1cccc(C)c1NC(=O)C1CCCCN1C (stereo unspecified),343%
2,O=c1[nH]c2cc(C(F)(F)F)c(N3CCOCC3)cc2n(CP(=O)(O)O)c1=O [fanapanel],193%
3,CCOc1ccc(NC(=S)Nc2ccc(OCC)cc2)cc1 [etocarlide],122%
4,O=S(=O)(O)c1ccc2[nH]c(-c3ccccc3)nc2c1 [ensulizole],166%
5,COC(=O)Nc1nc2cc([S+]([O-])c3ccccc3)ccc2[nH]1 (stereo unspecified),296%
6,COc1cc(O)c(C(=O)c2ccccc2)cc1S(=O)(=O)O,206%
7,Cc1noc(NS(=O)(=O)c2ccc(N)cc2)c1C [sulfafurazole],129%
8,O=C(O)c1cccc(/C=C2/C[C@@H]3[C@@H](/C=C/[C@@H](O)C4CCCCC4)[C@H](O)C[C@@H]3O2)c1 [taprostene],137%
9,Cc1c(CC(=O)O)sc2ccc(Cl)cc12 [tianafac],165%
10,CCCN(CC)C(CC)C(=O)Nc1c(C)cccc1C (stereo unspecified) [Etidocaine],237%
11,CC(=O)OC[C@H]1O[C@@H](n2ncc(=O)[nH]c2=O)[C@H](OC(C)=O)[C@@H]1OC(C)=O [azaribine],144%
12,O=C(O)[C@H](CC(=O)N1C[C@H]2CCCC[C@H]2C1)Cc1ccccc1 [mitiglinide],153%
13,CC(C)NCC(O)COc1ccc(CCOCC2CC2)cc1 (stereo unspecified) [Betaxolol·HCl],254%
14,CCc1nn(CCCN2CCN(c3cccc(Cl)c3)CC2)c(=O)n1CCOc1ccccc1 [Nefazodone],161%
15,CCOC(=O)[C@H](CCc1ccccc1)N[C@@H](C)C(=O)N1C(=O)N(C)C[C@H]1C(=O)O [imidapril],140%
16,C[C@H]1[C@H]2CC[C@H]3[C@@H]4CC=C5C[C@@H](N(C)C)CC[C@]5(C)[C@H]4CC[C@]23CN1C [conessine],80%
17,CCN(CC)CCOc1cc2oc(=O)cc(C)c2cc1OCCN(CC)CC [oxamarin],424%
18,CO[C@H](C(=O)[C@@H](O)[C@@H](C)O)[C@@H]1Cc2cc3cc(O[C@H]4C[C@@H](O[C@H]5C[C@@H](O)[C@H](O)[C@@H](C)O5)[C@H](O)[C@@H](C)O4)c(C)c(O)c3c(O)c2C(=O)[C@H]1O[C@H]1C[C@@H](O[C@H]2C[C@@H](O[C@H]3C[C@](C)(O)[C@H](O)[C@@H](C)O3)[C@@H](O)[C@@H](C)O2)[C@H](O)[C@@H](C)O1 [Mithracin],18.2%
19,CC(C)(Oc1ccc(Cl)cc1)C(=O)N1CSCC1C(=O)O (stereo unspecified) [timofibrate],128%
20,C[C@@H](O)[C@H](N)C(=O)O [threonine],234%
21,O=C(NCc1ccccc1)OCCO [buramate],128%
22,COC(=O)CCc1ccc(OCC(O)CNC(C)C)cc1 (stereo unspecified) [esmolol],130%
23,Cn1c(=O)c2[nH]cnc2n(C)c1=O [aminophylline],108%
24,Cc1scc2c1N(C(=O)CN1CCN(C)CC1)c1ccccc1NC2=O,231%
25,O=C(CCCN1CCC(C(=O)c2ccc(F)cc2)CC1)c1ccc(F)cc1 [lenperone],91.9%
26,C[N+](C)(C)CCCCCC[N+](C)(C)C [hexamethonium bromide],289%

row,SMILES,percent viability
1,FC(F)(F)COCC(F)(F)F,189%
2,O=S(=O)(O)c1cc(I)c(O)c2ncccc12,158%
3,CC(C)Oc1ccc2c(=O)c(-c3ccccc3)coc2c1,121%
4,O=C(O)/C=C/c1ccc(Cn2ccnc2)cc1 [Ozagrel],209%
5,Cc1ccc(C2(O)CCN(CCCC(=O)c3ccc(F)cc3)CC2)cc1 [moperone],109%
6,C[N+](C)(C)CCOP(=O)(O)OP(=O)([O-])OC[C@H]1O[C@@H](n2ccc(N)nc2=O)[C@H](O)[C@@H]1O,150%
7,Nc1[nH]cnc2ncnc1-2 [Adenine],202%
8,OC[C@H]1O[C@@H](n2cnc3c2N=CNC[C@H]3O)C[C@@H]1O [pentostatin],107%
9,Nc1ccn([C@@H]2CS[C@H](CO)O2)c(=O)n1 [lamivudine],141%
10,CC(C)(C)CC(C)(C)c1ccc(OCCOCC[N+](C)(C)Cc2ccccc2)cc1 [benzethonium chloride],132%
11,O=C(NC[C@H]1CN(c2ccc(N3CCOCC3=O)cc2)C(=O)O1)c1ccc(Cl)s1 [rivaroxaban],207%
12,CCc1nc(N)nc(N)c1-c1ccc(Cl)cc1 [pyrimethamine],193%
13,CCOC(=S)SSC(=S)OCC [dixanthogen],92.7%
14,O=C(O)COc1nn(Cc2ccccc2)c2ccccc12 [bendazac],197%
15,COc1ccccc1O,355%
16,CC(C(=O)O)c1ccc(N2Cc3ccccc3C2=O)cc1 (stereo unspecified) [indoprofen],149%
17,CC(=O)OCC(=O)[C@@]12OC(C)(C)O[C@@H]1C[C@H]1[C@@H]3C[C@H](F)C4=CC(=O)C=C[C@]4(C)[C@@]3(F)[C@@H](O)C[C@@]12C [fluocinonide],171% and 255%
18,C[C@]12CC[C@H]3C(=CCc4cc(O)ccc43)[C@@H]1CCC2=O [Equilin],300%
19,O=c1[nH]c2ccccc2c(=O)n1CCCN1CCN(c2cccc(Cl)c2)CC1 [cloperidone],324%
20,C[C@@H](O)CCCCn1c(=O)c2c(ncn2C)n(C)c1=O [lisofylline],208%
21,CNC(=O)c1ccc(Cl)c(S(=O)(=O)NC)c1 [tiamizide],155%
22,CCOc1ccc(C[C@H]2NC(=O)CCSSC[C@@H](C(=O)N3CCC[C@H]3C(=O)N[C@@H](CCCN)C(=O)NCC(N)=O)NC(=O)[C@H](CC(N)=O)NC(=O)[C@H]([C@@H](C)O)NC(=O)[C@H]([C@@H](C)CC)NC2=O)cc1 [atosiban],222%
23,NC(=O)NC(=O)C(Oc1ccc(Cl)cc1)Oc1ccc(Cl)cc1 [urefibrate],54.3%
24,CC(COc1ccccc1)NC(C)C(O)c1ccc(O)cc1 (stereo unspecified) [isoxsuprine],208% and 162%
25,CCn1c(=O)c2c(nc(/C=C/c3ccc(OC)c(OC)c3)n2C)n(CC)c1=O [istradefylline],154%
26,CCCCC[C@H](O)CC[C@@H]1[C@H]2Cc3cccc(OCC(=O)O)c3C[C@H]2C[C@H]1O [Treprostinil],206%

# Compounds above that have an NH in an aromatic ring, in the order listed:
row,SMILES,percent viability
2,O=c1[nH]c2cc(C(F)(F)F)c(N3CCOCC3)cc2n(CP(=O)(O)O)c1=O [fanapanel],193%
4,O=S(=O)(O)c1ccc2[nH]c(-c3ccccc3)nc2c1 [ensulizole],166%
5,COC(=O)Nc1nc2cc([S+]([O-])c3ccccc3)ccc2[nH]1 (stereo unspecified),296%
11,CC(=O)OC[C@H]1O[C@@H](n2ncc(=O)[nH]c2=O)[C@H](OC(C)=O)[C@@H]1OC(C)=O [azaribine],144%
23,Cn1c(=O)c2[nH]cnc2n(C)c1=O [aminophylline],108%
7,Nc1[nH]cnc2ncnc1-2 [Adenine],202%
19,O=c1[nH]c2ccccc2c(=O)n1CCCN1CCN(c2cccc(Cl)c2)CC1 [cloperidone],324%

# Carrying on:

row,SMILES,percent viability
1,COc1cc([C@@H]2Oc3c(O)cc([C@H]4Oc5cc(O)cc(O)c5C(=O)[C@@H]4O)cc3[C@H]2CO)ccc1O [silicristin],279%
2,Nc1ccc(C(=O)Oc2ccccc2)c(O)c1 [fenamisal],431%
3,CCCCC1C(=O)NN(c2ccccc2)C1=O (stereo unspecified) [mofebutazone],335%
4,COc1cc2nc(N3CCN(C(=O)C4CCCO4)CC3)nc(N)c2cc1OC (stereo unspecified),232%
5,C/C=C/C(=O)N(CC)C(CC)C(=O)N(C)C (stereo unspecified) [crotetamide],122%
6,CNCC[C@H](Oc1cccc2ccccc12)c1cccs1 [duloxetine],247%
7,NC(=O)C(=O)N/N=C/c1ccc([N+](=O)[O-])o1 [nifuraldezone],225%
8,CC(C)CCCC(C)NCCC(C)C (stereo unspecified) [octamylamine],174%
9,CCOC(=O)c1ccc(N(CC(C)O)CC(C)O)cc1 (stereo unspecified) [roxadimate],279%
10,CC(C)(C)NCC(O)COc1ccc(NC(=O)NC2CCCCC2)cc1 (stereo unspecified) [talinolol],95.9%
11,C[C@@H]1CCC[C@H](C)N1NC(=O)c1ccc(Cl)c(S(N)(=O)=O)c1 [clopamide],308%
12,O=C1CCC(N2C(=O)c3ccccc3C2=O)C(=O)N1 (stereo unspecified) [thalidomide],321% and 173%
13,CN1C2CCCC1CC(NC(=O)c1nn(C)c3ccccc13)C2 (stereo unspecified),143%
14,CCOC(=O)NNc1ccc(N(CC)CC(C)O)nn1 (stereo unspecified) [cadralazine],143%
15,Nc1nc2c(ncn2COC(CO)CO)c(=O)[nH]1,160%
16,COC(=O)C1=C(C#N)NC(C)=C(C(=O)OC(C)C)C1c1cccc([N+](=O)[O-])c1 (stereo unspecified) [nilvadipine],257%
17,C#C[C@]1(O)CC[C@H]2[C@@H]3CCC4=CCCC[C@@H]4[C@H]3CC[C@@]21C [lynestrenol],25.2%
18,C[C@@H]1C[C@H]2[C@@H]3C[C@H](F)C4=CC(=O)C=C[C@]4(C)[C@H]3[C@@H](O)C[C@]2(C)[C@@]1(O)C(=O)CO [paramethasone],414%
19,Clc1ccc(Cn2c(CN3CCCC3)nc3ccccc32)cc1 [clemizole],270%
20,CCc1cccc(N(C)C(=N)Nc2cccc3ccccc23)c1 [aptiganel],127%
21,CCN1CC(CCN2CCOCC2)C(c2ccccc2)(c2ccccc2)C1=O (stereo unspecified) [doxapram],82.5%
22,CC1(C)O[C@@H]2[C@@H](CO[C@@]3(COS(N)(=O)=O)OC(C)(C)O[C@@H]23)O1 [topiramate],273%
23,NC1CCN(c2nc3c(cc2F)c(=O)c(C(=O)O)cn3-c2ccc(F)cc2F)C1 (stereo unspecified) [tosufloxacin],94.7%
24,C[C@]12CC[C@@H]3c4ccc(O)cc4CC[C@H]3[C@@H]1C[C@H](O)[C@@H]2O,284%
